Experimental data from PubChem BioAssay AID504444 (National Center for Advancing Translational Sciences (NCATS), 2011).
About 7,500 (2.1%) of roughly 360,000 compounds were called active. Inconclusive means that the source gave no clear call. Such entries were picked first, then a sample of the others. Calls come from the whole dose curve; as a rule, active = well fitted inhibition curve with a large enough effect; inconclusive = small, poorly fitted or top-dose-only effect, or effect the other way; inactive = flat fitted curve, though single readings scatter. Potencies beside an inconclusive call are fits to weak or partial responses and may not hold up.

assay: Nrf2 qHTS screen for inhibitors; conditions: A549 ARE-Fluc reporter, luciferase luminescence, 18-24 h; activity change, negative = inhibition: at 46 µM (top of the series); note: nearly all actives have a fitted effect of over 60% in size
In short: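 A549 ARE_Fluc cells (5000/well, 5% FBS OPTI-MEM) pre-incubated 2 h, then treated with compounds 18-24 h at 37C/5% CO2 in concentration-response. CellTiter-Fluor viability read first; BugLite luciferase luminescence after 15 min at room temperature gives Nrf2 activity.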
% is set by controls: 0 for no effect and ±100 for the full control effect; potency is the fitted concentration of half-maximal effect.

Row | SMILES | activity change, negative = inhibition | Potency
1 | COc1ccc(C2c3[nH]c4ccccc4c3CCN2Cc2cccn2-c2ncccn2)cc1C (stereo not drawn) | inactive: 21.7% | –
2 | Cc1cc(C)c(C#N)c(SCC(=O)c2ccccc2)n1 | inactive: 20.8% | –
3 | O=C(Nc1ccc2oc(-c3cccnc3)nc2c1)c1ccc(Br)o1 | – | inconclusive: 1.46 µM [falling, full curve]
4 | Cc1cccc(C)c1-c1ccc(CN2C(CC(C)C)C(=O)N(Cc3cn(CCO)nn3)CCS2(=O)=O)cc1 (stereo not drawn) | – | inconclusive: 29.1 µM [falling, single point]
5 | CC(C)c1ccc(NC(=O)C(c2ccccc2)N2CC(=O)Nc3ccccc32)cc1 (stereo not drawn) | inactive: -15.5% | –
6 | COc1ccc(NC(=O)c2ccc(OC(F)F)cc2)cc1Cl | – | inconclusive: 1.64 µM [activator, full curve]
7 | CC(C)Cn1nc(NC(=O)c2ccco2)c2cc3ccccc3nc21 | – | active: 16.4 µM
8 | Cc1ccc(S(=O)(=O)Nc2ccc3c(c2)CCC3)cc1 | – | active: 11.6 µM
9 | CCCS(=O)(=O)N1CCN(Cc2ccc(OCc3ccccc3)c(OC)c2)CC1 | – | inconclusive: 1.84 µM [falling, full curve, poor fit]
10 | COc1ccc2c(c1)CCc1c(C(=O)Nc3ccccc3C(F)(F)F)noc1-2 | – | inconclusive: 4.61 µM [activator, full curve]
11 | CC(C)N(C(=O)[C@H]1C[C@H](CC(=O)NCCC2=CCCCC2)C(=O)N2CCc3c([nH]c4cc(-c5ccco5)ccc34)[C@]12C)C(C)C | – | inconclusive: 29.1 µM [falling, single point]
12 | COc1cc2[nH]c(=S)n(Cc3ccc(C)cc3)c(=O)c2cc1OC | – | inconclusive: 23.1 µM [falling, single point]
13 | CCOC(=O)c1scc(-c2ccc(C)cc2)c1S(=O)(=O)Nc1cc(Cl)ccc1OC | – | inconclusive: 32.6 µM [falling, single point]
14 | O=C(O)C1CCC(Cn2c(SCc3cc(=O)n4cc(Br)ccc4n3)nc3ccsc3c2=O)CC1 (stereo not drawn) | – | inconclusive: 13 µM [falling, partial curve, poor fit]
15 | O=C(CNC(=S)N(Cc1ccccc1F)C1CCCCC1)NCC1CCCO1 (stereo not drawn) | – | inconclusive: 29.1 µM [falling, single point]
16 | COc1ccc(OCc2cc(C(=O)N3CCCCCC3)no2)c(Cl)c1 | – | inconclusive: 11.6 µM [activator, single point]
17 | COc1cccc(CNC(=O)Cn2cc3c(n2)-c2c(oc(C(=O)N4CCCC4)c2C)CC3)c1 | – | inconclusive: 20.6 µM [falling, single point]
18 | NC(=O)C1CCN(C(=O)CC2(CC(=O)O)CCCCC2)CC1 | – | inconclusive: 5.8 µM [falling, partial curve, poor fit]
19 | CCOC(=O)C1=C(C)NC(SC)=C(C#N)C1CC(C)C (stereo not drawn) | – | inconclusive: 2.59 µM [falling, partial curve, poor fit]
20 | O=C(Nc1ncc([N+](=O)[O-])s1)c1ccccc1Br | – | inconclusive: 32.6 µM [falling, single point]
21 | Cc1ccc2c(nc3s/c(=C/c4cccs4)c(=O)n32)c1C | – | inconclusive: 1.03 µM [activator, full curve]

Copied from above for reference:
Row | SMILES | activity change, negative = inhibition | Potency
3 | O=C(Nc1ccc2oc(-c3cccnc3)nc2c1)c1ccc(Br)o1 | – | inconclusive: 1.46 µM [falling, full curve]
4 | Cc1cccc(C)c1-c1ccc(CN2C(CC(C)C)C(=O)N(Cc3cn(CCO)nn3)CCS2(=O)=O)cc1 (stereo not drawn) | – | inconclusive: 29.1 µM [falling, single point]
5 | CC(C)c1ccc(NC(=O)C(c2ccccc2)N2CC(=O)Nc3ccccc32)cc1 (stereo not drawn) | inactive: -15.5% | –
6 | COc1ccc(NC(=O)c2ccc(OC(F)F)cc2)cc1Cl | – | inconclusive: 1.64 µM [activator, full curve]
7 | CC(C)Cn1nc(NC(=O)c2ccco2)c2cc3ccccc3nc21 | – | active: 16.4 µM
8 | Cc1ccc(S(=O)(=O)Nc2ccc3c(c2)CCC3)cc1 | – | active: 11.6 µM
9 | CCCS(=O)(=O)N1CCN(Cc2ccc(OCc3ccccc3)c(OC)c2)CC1 | – | inconclusive: 1.84 µM [falling, full curve, poor fit]
10 | COc1ccc2c(c1)CCc1c(C(=O)Nc3ccccc3C(F)(F)F)noc1-2 | – | inconclusive: 4.61 µM [activator, full curve]
11 | CC(C)N(C(=O)[C@H]1C[C@H](CC(=O)NCCC2=CCCCC2)C(=O)N2CCc3c([nH]c4cc(-c5ccco5)ccc34)[C@]12C)C(C)C | – | inconclusive: 29.1 µM [falling, single point]
12 | COc1cc2[nH]c(=S)n(Cc3ccc(C)cc3)c(=O)c2cc1OC | – | inconclusive: 23.1 µM [falling, single point]
13 | CCOC(=O)c1scc(-c2ccc(C)cc2)c1S(=O)(=O)Nc1cc(Cl)ccc1OC | – | inconclusive: 32.6 µM [falling, single point]
14 | O=C(O)C1CCC(Cn2c(SCc3cc(=O)n4cc(Br)ccc4n3)nc3ccsc3c2=O)CC1 (stereo not drawn) | – | inconclusive: 13 µM [falling, partial curve, poor fit]
15 | O=C(CNC(=S)N(Cc1ccccc1F)C1CCCCC1)NCC1CCCO1 (stereo not drawn) | – | inconclusive: 29.1 µM [falling, single point]
16 | COc1ccc(OCc2cc(C(=O)N3CCCCCC3)no2)c(Cl)c1 | – | inconclusive: 11.6 µM [activator, single point]
17 | COc1cccc(CNC(=O)Cn2cc3c(n2)-c2c(oc(C(=O)N4CCCC4)c2C)CC3)c1 | – | inconclusive: 20.6 µM [falling, single point]
18 | NC(=O)C1CCN(C(=O)CC2(CC(=O)O)CCCCC2)CC1 | – | inconclusive: 5.8 µM [falling, partial curve, poor fit]
19 | CCOC(=O)C1=C(C)NC(SC)=C(C#N)C1CC(C)C (stereo not drawn) | – | inconclusive: 2.59 µM [falling, partial curve, poor fit]
20 | O=C(Nc1ncc([N+](=O)[O-])s1)c1ccccc1Br | – | inconclusive: 32.6 µM [falling, single point]
21 | Cc1ccc2c(nc3s/c(=C/c4cccs4)c(=O)n32)c1C | – | inconclusive: 1.03 µM [activator, full curve]

Going on with the list.

Row | SMILES | activity change, negative = inhibition | Potency
22 | CC(C)[C@H](NC(=O)OCc1ccccc1)C(=O)OCC(=O)NC1(C#N)CCCC1 | – | inconclusive: 10.3 µM [activator, partial curve, poor fit]
23 | O=C(Nc1ccc(N2CCOCC2)cc1)c1ccc(-c2ccccc2[N+](=O)[O-])o1 | – | inconclusive: 14.6 µM [falling, single point]
24 | COC(=O)c1c(NC(=O)c2nc3nc(C)cc(C(F)F)n3n2)sc2c1CCC2 | – | inconclusive: 14.6 µM [falling, partial curve, poor fit]
25 | COc1ccc(OC)c(C(=O)COC(=O)c2ccccc2O)c1 | inactive: 0.255% | –
26 | Cc1oc2ccc(O)c(CN3CCN(C)CC3)c2c1C(=O)Nc1ccccc1 | inactive: 23.1% | –
27 | Cc1cnc(NC(=O)NCC2CCCC(CNC(=O)Nc3ncc(C)s3)C2)s1 (stereo not drawn) | – | inconclusive: 18.4 µM [falling, single point]
28 | OC1(c2ccc(Cl)cc2)CCN(Cc2cn[nH]c2-c2ccccc2)CC1 | – | inconclusive: 23.1 µM [falling, single point]
29 | COc1cccc(CNC(=O)c2cccc(-n3c(C)nc4cccnc43)c2C)c1 | – | inconclusive: 29.1 µM [falling, single point]
30 | COP(=O)(OC)C(Nc1ccc(C)cc1)c1ccc([N+](=O)[O-])cc1 (stereo not drawn) | – | inconclusive: 6.51 µM [activator, partial curve, poor fit]
31 | NS(=O)(=O)c1ccc(NCc2cc(Cl)ccc2OCc2ccc(F)cc2)cc1 | – | inconclusive: 16.4 µM [falling, single point]
32 | CCOC(=O)c1ccccc1NC(=O)COC(=O)C1CCCC1 | – | inconclusive: 1.16 µM [activator, partial curve, poor fit]
33 | CCN(CC)Cc1c(C(=O)N/N=C/c2ccc(OCc3ccccc3C)cc2)nnn1-c1nonc1N | – | inconclusive: 16.4 µM [activator, partial curve, poor fit]
34 | CCOc1ccc2nc(NC(=O)C3CCCO3)sc2c1 (stereo not drawn) | – | inconclusive: 0.58 µM [activator, full curve, poor fit]
35 | O=C(O)Cc1sc(-c2ccc(C(=O)O)cc2)nc1-c1ccccc1 | – | inconclusive: 3.26 µM [activator, full curve]
36 | O=C(Nc1ccccc1)C1CCCCN1S(=O)(=O)c1ccccc1 (stereo not drawn) | – | inconclusive: 32.6 µM [falling, partial curve, poor fit]
37 | Cc1ccc(NC(=O)c2nc[nH]c2C(=O)NCCCCCNC(=O)OC(C)(C)C)cc1 | – | inconclusive: 20.6 µM [falling, single point]
38 | CCOc1ccc(S(=O)(=O)/N=C(/Nc2ccc(C(C)=O)cc2)c2ccccc2)cc1 | – | inconclusive: 20.6 µM [falling, single point]
39 | Cc1ccc(Cl)cc1N1CCN(c2cccc[n+]2C)CC1 | – | active: 8.2 µM
40 | O=C(NCCc1nc2ccc(Cl)cc2[nH]1)C1CCC(=O)N(Cc2cccc(F)c2)C1 (stereo not drawn) | inactive: -1.1% | –
41 | CC1CCc2[nH]c3ccc(C(=O)N(C)CC(=O)Nc4ccccc4Br)cc3c2C1 (stereo not drawn) | – | inconclusive: 29.1 µM [falling, single point]
42 | CCOc1cc(S(=O)(=O)NCC2OCCc3ccccc32)c(OCC)cc1-n1cnnn1 (stereo not drawn) | inactive: -20.1% | –

Row | SMILES | activity change, negative = inhibition | Potency
43 | O=C(Nc1ccc2nc3n(c(=O)c2c1)CCCCC3)c1cc([N+](=O)[O-])ccc1F | – | inconclusive: 20.6 µM [activator, partial curve]
44 | O=C(COc1ccc(F)cc1Br)N1CCN(c2ncccn2)CC1 | – | inconclusive: 6.51 µM [falling, single point]
45 | CCc1nn(CC(=O)NCCc2ccc(Cl)cc2)c(=O)c2cc3ccccc3n12 | inactive: 2.15% | –
46 | N#Cc1ccccc1OCC(=O)NC1CCCCC1 | – | inconclusive: 9.2 µM [activator, partial curve]
47 | COc1ccc(C(=O)CN2Cc3ccccc3C2=N)cc1 | – | inconclusive: 0.82 µM [activator, full curve]
48 | CCN(CC(=O)Nc1c(F)cccc1F)C(=O)c1ccc(COc2ccccc2)cc1 | – | inconclusive: 32.6 µM [falling, single point]
49 | Cc1cccc(N2CCN(C(=O)c3oc(=O)c4ccccc4c3-c3ccccc3)CC2C)c1 (stereo not drawn) | inactive: -19.8% | –
50 | CCOc1ccccc1Cn1c(=O)sc2ccccc21 | – | inconclusive: 18.4 µM [activator, single point]
51 | O=C(O)c1ccccc1CSc1nc2ccccc2o1 | – | inconclusive: 5.17 µM [activator, partial curve]
52 | COc1ccc(CCN(C)c2ncnc3sccc23)cc1OC | – | inconclusive: 4.61 µM [falling, full curve]
53 | COc1ccc(S(=O)(=O)Nc2ccc(F)c(F)c2)cc1Cl | – | inconclusive: 29.1 µM [falling, single point]
54 | CC(=O)C1=C(C)NC2=C(C(=O)c3ccccc32)C1c1ccccc1 (stereo not drawn) | – | inconclusive: 13 µM [falling, partial curve, poor fit]
55 | O=C(c1ccc(S(=O)(=O)N2CCCCC2)cc1)N1CCN(Cc2ccc3c(c2)OCO3)CC1 | – | inconclusive: 2.91 µM [falling, partial curve]
56 | COC(=O)c1ccccc1NC(=O)CNC(=O)c1ccc(OC)c(OC)c1 | – | inconclusive: 20.6 µM [falling, single point]
57 | Nc1nc(-c2sc3nc4c(cc3c2N)CCCC4)nc(N2CCOCC2)n1 | – | inconclusive: 14.6 µM [activator, partial curve]
58 | COc1ccccc1N1CCN(C(=O)C(Cc2ccccc2)NC(=O)C2CCCCC2)CC1 (stereo not drawn) | – | inconclusive: 0.291 µM [falling, full curve, poor fit]
59 | CC(C)NC(=O)Nc1cccc2c1O[C@H](CN(C)C(=O)NC(C)C)[C@@H](C)CN([C@H](C)CO)C2=O | – | inconclusive: 23.1 µM [activator, partial curve, poor fit]
60 | Cc1cc(C(=O)CSc2nnc(N)s2)c(C)n1Cc1ccco1 | – | inconclusive: 5.17 µM [activator, partial curve]
61 | CC(C(=O)N1c2ccccc2CCc2ccccc21)n1nnc(-c2ccc(N(C)C)cc2)n1 (stereo not drawn) | – | inconclusive: 29.1 µM [falling, single point]
62 | COc1cccc(CNCc2cccn2-c2nnc(N3CCN(c4ccccc4)CC3)s2)c1 | – | inconclusive: 11.6 µM [falling, single point]
63 | CCOC(=O)C1CCCN(C(=O)c2ccc(C)c(S(=O)(=O)N3CCCCC3)c2)C1 (stereo not drawn) | – | inconclusive: 29.1 µM [falling, single point]
